Where a chain is given by its changes, count along the chain named. Results are given in words; binding and its absence hold for the method and conditions named. Some results given as binding are weak or reduced against the parent protein; the word gives no strength.
Columns and labels:
Assay in all cases: co-purification by affinity chromatography (StrepII tag), SDS-PAGE; proteins expressed in E. coli ArcticExpress (DE3) at 10 °C, MgCl2 added to the culture; StrepII affinity chromatography of the lysate; SDS-PAGE of the eluate
[1] = molecular target: T1, mATGL288 (F17A)-Str (mouse) (UniProt Q8BJ56)
T1 sequence: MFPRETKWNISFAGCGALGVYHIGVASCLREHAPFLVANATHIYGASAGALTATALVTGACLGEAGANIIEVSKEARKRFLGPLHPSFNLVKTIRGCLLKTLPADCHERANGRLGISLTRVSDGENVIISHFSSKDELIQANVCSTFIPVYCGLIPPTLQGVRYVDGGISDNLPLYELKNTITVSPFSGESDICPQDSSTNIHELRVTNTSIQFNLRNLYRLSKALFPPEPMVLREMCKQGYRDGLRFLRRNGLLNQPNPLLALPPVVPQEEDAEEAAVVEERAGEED

The chains behind the UniProt entries cited, without tags or fusion partners.
UniProt P0A6Y8: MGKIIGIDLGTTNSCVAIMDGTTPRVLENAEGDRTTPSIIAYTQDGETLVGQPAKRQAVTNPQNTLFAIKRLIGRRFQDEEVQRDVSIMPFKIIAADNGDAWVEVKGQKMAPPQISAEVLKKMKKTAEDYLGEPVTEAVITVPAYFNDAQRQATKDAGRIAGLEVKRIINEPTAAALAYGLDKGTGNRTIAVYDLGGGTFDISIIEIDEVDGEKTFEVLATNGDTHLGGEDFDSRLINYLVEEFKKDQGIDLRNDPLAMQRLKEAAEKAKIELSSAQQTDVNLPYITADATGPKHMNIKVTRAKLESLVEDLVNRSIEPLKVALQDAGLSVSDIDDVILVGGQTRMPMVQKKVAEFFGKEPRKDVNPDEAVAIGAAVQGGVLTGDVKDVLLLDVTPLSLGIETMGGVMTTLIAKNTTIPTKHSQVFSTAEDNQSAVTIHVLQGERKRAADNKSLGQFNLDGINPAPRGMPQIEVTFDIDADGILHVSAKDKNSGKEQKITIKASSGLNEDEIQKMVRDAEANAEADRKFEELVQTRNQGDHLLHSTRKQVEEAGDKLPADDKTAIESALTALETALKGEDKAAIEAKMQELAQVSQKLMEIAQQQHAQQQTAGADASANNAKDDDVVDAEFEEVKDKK
UniProt P0A6F5: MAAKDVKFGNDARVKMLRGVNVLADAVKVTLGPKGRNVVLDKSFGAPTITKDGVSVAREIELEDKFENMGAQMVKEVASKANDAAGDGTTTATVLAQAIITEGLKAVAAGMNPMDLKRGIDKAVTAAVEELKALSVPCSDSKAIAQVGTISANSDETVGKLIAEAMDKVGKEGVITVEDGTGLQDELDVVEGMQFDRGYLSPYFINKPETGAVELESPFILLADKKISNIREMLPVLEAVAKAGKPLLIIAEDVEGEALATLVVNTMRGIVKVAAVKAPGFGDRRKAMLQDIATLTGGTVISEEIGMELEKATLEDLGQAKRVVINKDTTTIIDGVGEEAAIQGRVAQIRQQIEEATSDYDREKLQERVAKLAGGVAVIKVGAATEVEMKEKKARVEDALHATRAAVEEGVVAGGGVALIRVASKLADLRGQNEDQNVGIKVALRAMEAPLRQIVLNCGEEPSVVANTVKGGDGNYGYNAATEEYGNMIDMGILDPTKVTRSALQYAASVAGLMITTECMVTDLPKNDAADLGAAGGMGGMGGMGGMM

[2] = molecular target: T2, mATGL288 (S47A)-Str (mouse) (UniProt Q8BJ56)
T2 sequence: T1 sequence with A17F, S47A

[3] = molecular target: T3, mATGL288-Str (expression product of pST44-SMT3-TEV-mATGL288-STR) (mouse) (UniProt Q8BJ56)
T3 sequence: T1 sequence with A17F

binding [1] | binding [2] | binding [3] | Substance
binds | binds | binds | DnaK (from UniProt P0A6Y8 1-638)
binds | binds | binds | GroEL (from UniProt P0A6F5 1-548)
